Assay results: paper PMC8597092
Results are given in words; binding and its absence hold for the method and conditions named. In cells and extracts the contact can be indirect. Here binding means that the protein was enriched with, or labelled near, the bait; the list need not be complete.

Protein sequences, listed by entry. Tags and fused reporters are not part of them.
UniProt Q05397: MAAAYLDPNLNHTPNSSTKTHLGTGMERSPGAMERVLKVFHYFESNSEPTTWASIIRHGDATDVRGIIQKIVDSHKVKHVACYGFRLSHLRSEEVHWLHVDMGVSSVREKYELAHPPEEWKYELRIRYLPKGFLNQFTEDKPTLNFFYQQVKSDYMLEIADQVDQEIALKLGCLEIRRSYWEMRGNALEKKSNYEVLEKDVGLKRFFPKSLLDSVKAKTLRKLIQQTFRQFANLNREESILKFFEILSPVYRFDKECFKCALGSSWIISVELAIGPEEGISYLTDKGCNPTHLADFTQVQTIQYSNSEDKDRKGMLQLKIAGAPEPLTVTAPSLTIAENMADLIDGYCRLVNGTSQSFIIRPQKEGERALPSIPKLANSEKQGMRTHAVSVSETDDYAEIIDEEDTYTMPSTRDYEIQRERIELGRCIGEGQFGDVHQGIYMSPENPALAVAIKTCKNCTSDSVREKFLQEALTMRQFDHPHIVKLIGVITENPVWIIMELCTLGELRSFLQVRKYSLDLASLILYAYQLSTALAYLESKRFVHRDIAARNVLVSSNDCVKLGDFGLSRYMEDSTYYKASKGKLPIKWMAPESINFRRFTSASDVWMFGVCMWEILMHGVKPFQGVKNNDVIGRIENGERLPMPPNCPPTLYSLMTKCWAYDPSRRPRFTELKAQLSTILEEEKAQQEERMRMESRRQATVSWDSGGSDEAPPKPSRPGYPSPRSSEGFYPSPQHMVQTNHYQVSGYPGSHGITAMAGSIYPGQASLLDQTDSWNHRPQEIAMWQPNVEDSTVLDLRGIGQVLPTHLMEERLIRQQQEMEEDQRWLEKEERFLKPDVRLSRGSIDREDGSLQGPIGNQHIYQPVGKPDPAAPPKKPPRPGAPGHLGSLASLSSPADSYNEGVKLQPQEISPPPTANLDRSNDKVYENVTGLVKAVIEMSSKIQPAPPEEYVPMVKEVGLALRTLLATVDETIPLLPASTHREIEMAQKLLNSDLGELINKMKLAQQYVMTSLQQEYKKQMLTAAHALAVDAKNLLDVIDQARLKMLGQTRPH
UniProt P35222: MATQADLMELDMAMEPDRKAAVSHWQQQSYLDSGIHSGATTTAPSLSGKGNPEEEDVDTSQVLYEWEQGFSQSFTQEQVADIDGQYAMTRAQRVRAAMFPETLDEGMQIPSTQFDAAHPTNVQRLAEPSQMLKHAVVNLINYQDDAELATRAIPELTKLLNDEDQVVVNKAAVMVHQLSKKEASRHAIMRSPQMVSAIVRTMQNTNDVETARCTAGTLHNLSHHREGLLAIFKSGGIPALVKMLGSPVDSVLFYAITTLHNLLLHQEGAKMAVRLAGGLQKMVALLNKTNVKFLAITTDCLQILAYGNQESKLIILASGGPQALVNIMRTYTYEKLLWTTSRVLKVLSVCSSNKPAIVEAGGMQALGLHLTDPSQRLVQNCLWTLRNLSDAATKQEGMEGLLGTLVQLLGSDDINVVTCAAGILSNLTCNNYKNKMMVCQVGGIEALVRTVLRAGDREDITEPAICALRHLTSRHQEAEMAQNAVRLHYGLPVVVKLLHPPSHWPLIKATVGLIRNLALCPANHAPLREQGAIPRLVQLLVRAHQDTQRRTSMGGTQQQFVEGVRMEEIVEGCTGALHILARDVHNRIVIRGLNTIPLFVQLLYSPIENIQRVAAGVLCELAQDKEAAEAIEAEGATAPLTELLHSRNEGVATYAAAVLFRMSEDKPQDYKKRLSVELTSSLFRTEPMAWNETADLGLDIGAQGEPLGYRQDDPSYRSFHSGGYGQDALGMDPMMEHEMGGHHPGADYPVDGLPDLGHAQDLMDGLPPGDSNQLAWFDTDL

Molecular target: focal adhesion kinase (FAK) (human (endogenous in HepG2 and Huh7)) (UniProt Q05397)
Test: affinity purification with mass spectrometry; nuclear extracts of HepG2 and Huh7 cells immunoprecipitated with an antibody against FAK on protein A/G PLUS-Agarose beads; SDS-PAGE, in-gel digestion, nLC-ESI-MS/MS

binding: binds
Substance: β-catenin (from UniProt P35222 1-781)
